Results deposited as PubChem BioAssay AID1259308 (NCATS, 2017)
Screen: 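Genes whose loss raises luciferase production in HEK293 cells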 (primary screen). System: human HEK293 embryonic kidney cells stably expressing firefly luciferase (HEK-CMV-Luc2-Hygro). Reagents: single siRNA against human genes, 0.8 pmol siRNA per well. Duration: 72 h. Measured: 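Luciferase light (ONE-Glo) measured on one replicate plate set and viability (CellTiter-Glo) on the other, scaled to a negative control siRNA, with robust z-scores and luciferase per cell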. Reading the numbers: total luciferase, z-score: higher = more reporter protein produced. Active means: 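An siRNA counts as active if its total luciferase robust z-score exceeds 3; genes with two or more such siRNAs out of three were retested with fresh siRNAs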. Meaning of the calls: active = raised luciferase; inactive = no rise.
The deposit covers about 59,000 reagents; below is a part drawn at random. About 1,510 of all reagents (2.6%) count as active. 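Calls use total luciferase alone and ignore viability, so some active siRNAs may act by altering cell number.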 Entries without a mark were called inactive. Reagents against one gene are numbered here. Further read-outs or replicates are left out here.

gene,reagent no.,"total luciferase, z-score"
SFSWAP,1,0.679
SFSWAP,2,1.16
SFSWAP,3,-0.394
NME2,1,-1.5
NME2,2,0.62
NME2,3,0.362
TMTC2,1,-1.41
TMTC2,2,-0.244
TMTC2,3,-0.429
DNALI1,1,-0.364
DNALI1,2,0.0195
DNALI1,3,8.4 (active)
PACSIN2,1,-0.337
PACSIN2,2,2.26
PACSIN2,3,1.65
GPR176,1,2.1
GPR176,2,0.178
GPR176,3,0.0106
MBOAT4,1,-0.344
MBOAT4,2,-0.95
MBOAT4,3,-0.631
TCTN1,1,-0.0305
TCTN1,2,0.457
TCTN1,3,-0.0246
OR6N1,1,-0.386
OR6N1,2,3.25 (active)
OR6N1,3,1.68
CLINT1,1,2.62
CLINT1,2,0.141
CLINT1,3,0.0838
ABCB4,1,0.114
ABCB4,2,0.165
ABCB4,3,0.422
LIPT2,1,0.0506
LIPT2,2,0.156
LIPT2,3,0.651
GSDMC,1,-1.36
GSDMC,2,-0.942
GSDMC,3,-2.13
LRRC23,1,-0.601
LRRC23,2,-0.406
LRRC23,3,0.886
BHLHE40,1,0.257
BHLHE40,2,-0.731
BHLHE40,3,0.208
BCL11B,1,-0.444
BCL11B,2,2.21
BCL11B,3,4.55 (active)
MAP3K8,1,-0.72
MAP3K8,2,2.59
MAP3K8,3,-1.66
CCDC13,1,0.325
CCDC13,2,-2.27
CCDC13,3,1.84
PIM1,1,-0.123
PIM1,2,-1.42
PIM1,3,-0.889
TEX47,1,2.72
TEX47,2,2.97
TEX47,3,-0.409
TBC1D32,1,-0.921
TBC1D32,2,0.42
TBC1D32,3,2.32
ATP1B3,1,-0.767
ATP1B3,2,0.79
ATP1B3,3,-1.78
PRSS42P,1,2.87
PRSS42P,2,-1.4
PRSS42P,3,0.0462
OTUB1,1,0.919
OTUB1,2,1.49
OTUB1,3,1.14
SUGP2,1,-0.793
SUGP2,2,-0.816
SUGP2,3,-0.407
